Test [1] concerns the target T1, WHRN, wild type, of the PDZ-truncation co-IP (Figure 6b,c) (mouse) (UniProt Q80VW5).
T1 sequence: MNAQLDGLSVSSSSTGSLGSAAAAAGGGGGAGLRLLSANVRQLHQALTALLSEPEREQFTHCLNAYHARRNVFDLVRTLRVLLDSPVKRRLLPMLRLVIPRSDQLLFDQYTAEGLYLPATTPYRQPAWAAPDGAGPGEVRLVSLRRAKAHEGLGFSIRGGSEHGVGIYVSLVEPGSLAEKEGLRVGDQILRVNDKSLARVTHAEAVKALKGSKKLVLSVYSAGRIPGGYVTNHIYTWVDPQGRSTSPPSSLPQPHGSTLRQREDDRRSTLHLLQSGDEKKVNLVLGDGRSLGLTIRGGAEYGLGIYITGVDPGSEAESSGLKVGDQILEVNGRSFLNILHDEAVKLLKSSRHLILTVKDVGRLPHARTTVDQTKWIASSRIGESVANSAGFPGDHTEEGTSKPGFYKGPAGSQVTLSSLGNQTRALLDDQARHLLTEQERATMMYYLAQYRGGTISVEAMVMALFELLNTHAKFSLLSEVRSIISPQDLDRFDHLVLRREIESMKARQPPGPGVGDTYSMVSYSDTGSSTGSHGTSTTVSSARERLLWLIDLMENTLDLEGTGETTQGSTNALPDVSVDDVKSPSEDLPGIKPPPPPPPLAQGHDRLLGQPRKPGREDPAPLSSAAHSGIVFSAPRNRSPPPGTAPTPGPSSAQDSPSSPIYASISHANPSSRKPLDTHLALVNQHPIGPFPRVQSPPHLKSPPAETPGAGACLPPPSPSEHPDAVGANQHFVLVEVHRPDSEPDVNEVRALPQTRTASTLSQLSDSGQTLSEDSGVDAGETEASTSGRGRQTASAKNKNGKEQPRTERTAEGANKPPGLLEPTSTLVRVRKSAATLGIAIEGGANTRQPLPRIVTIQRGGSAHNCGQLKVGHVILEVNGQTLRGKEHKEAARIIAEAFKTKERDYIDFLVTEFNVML
The test is described as follows: co-IP; cotransfected HEK293 cells, starved 12 h, lysed in 50 mM Tris-HCl pH 7.4, 150 mM NaCl, 1% Triton, 1% NP-40, 2 mM EDTA; anti-Flag M2 or anti-Myc antibody-conjugated agarose, 4 °C overnight; blots against the tags.

The chains behind the UniProt entries cited, without tags or fusion partners. Residues count along the entry.
UniProt Q8VHN7, residues 4333-6298: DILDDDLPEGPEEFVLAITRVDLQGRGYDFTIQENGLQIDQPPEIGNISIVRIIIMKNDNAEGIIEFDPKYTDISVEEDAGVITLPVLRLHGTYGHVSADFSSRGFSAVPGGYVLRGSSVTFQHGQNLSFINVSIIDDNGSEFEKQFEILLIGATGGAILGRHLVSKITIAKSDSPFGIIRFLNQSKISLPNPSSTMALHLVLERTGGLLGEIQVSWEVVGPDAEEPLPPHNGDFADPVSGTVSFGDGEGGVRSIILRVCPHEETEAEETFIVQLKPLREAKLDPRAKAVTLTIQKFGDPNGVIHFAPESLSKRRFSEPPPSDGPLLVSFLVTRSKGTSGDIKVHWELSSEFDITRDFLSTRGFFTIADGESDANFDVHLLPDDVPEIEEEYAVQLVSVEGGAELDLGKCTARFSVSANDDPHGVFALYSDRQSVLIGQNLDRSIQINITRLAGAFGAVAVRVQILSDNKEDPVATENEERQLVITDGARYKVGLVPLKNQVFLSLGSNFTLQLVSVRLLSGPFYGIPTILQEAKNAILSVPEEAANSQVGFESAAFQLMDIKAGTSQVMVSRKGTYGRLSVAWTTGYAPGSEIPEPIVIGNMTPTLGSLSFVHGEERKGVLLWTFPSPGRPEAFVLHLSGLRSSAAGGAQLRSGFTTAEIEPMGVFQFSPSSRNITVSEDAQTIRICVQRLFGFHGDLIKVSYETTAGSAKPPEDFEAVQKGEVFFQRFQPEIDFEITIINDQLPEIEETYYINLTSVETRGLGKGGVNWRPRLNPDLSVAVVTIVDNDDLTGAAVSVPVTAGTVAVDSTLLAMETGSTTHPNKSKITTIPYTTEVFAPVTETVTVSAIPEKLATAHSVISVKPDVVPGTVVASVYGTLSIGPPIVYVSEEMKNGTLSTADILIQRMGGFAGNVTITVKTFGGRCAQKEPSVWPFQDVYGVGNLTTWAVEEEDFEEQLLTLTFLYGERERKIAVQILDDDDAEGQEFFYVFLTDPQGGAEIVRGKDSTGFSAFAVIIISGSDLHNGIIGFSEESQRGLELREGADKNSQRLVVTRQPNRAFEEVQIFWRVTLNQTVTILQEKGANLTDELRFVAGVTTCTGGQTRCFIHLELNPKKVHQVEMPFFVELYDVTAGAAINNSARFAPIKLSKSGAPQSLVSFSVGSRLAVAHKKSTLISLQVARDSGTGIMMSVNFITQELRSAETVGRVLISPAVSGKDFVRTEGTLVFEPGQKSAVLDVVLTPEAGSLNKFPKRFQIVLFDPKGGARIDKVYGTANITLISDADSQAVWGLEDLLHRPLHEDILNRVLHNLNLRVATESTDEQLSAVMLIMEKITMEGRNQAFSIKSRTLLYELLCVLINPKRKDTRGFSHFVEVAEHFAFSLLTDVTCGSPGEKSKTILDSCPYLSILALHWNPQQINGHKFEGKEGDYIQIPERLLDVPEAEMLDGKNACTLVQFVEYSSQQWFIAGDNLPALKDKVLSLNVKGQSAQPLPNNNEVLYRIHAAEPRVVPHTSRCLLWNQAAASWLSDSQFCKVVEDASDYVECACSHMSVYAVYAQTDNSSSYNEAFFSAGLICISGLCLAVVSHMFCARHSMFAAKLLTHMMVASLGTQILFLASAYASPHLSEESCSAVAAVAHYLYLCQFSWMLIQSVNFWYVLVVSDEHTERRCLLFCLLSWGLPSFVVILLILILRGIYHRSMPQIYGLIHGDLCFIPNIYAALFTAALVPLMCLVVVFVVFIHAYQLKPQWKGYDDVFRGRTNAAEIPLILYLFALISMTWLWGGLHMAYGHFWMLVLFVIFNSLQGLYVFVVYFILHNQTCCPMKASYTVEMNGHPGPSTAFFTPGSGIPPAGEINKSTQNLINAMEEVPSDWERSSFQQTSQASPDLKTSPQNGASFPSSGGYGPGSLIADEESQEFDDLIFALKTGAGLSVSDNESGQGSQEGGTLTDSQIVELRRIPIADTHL

The target of test [2] is T2, WHRN-Nluc Z1-L (mouse) (UniProt Q80VW5).
T2 sequence: T1 sequence
The test is described as follows: FRET or BRET; intermolecular FlAsH-BRET saturation in HEK293 cells: fixed amount of WHRN-Nluc, increasing ADGRV1-FlAsH or USH2A-FlAsH; 2.5 µM FlAsH-EDT2, 5 µM coelenterazine-h; net BRET Em530/Em485.

Test [3] has as its target T3, WHRN-Nluc L-Z1 (mouse) (UniProt Q80VW5).
T3 sequence: T1 sequence
Described as above.

In test [4] the target is T4, WHRN-Nluc L-Z3 (mouse) (UniProt Q80VW5).
T4 sequence: T1 sequence
The description is as above.

Test [5] addresses T5, WHRN, endogenous in mouse cochlea (mouse (endogenous in cochlea)) (UniProt Q80VW5).
T5 sequence: T1 sequence
The test is described as follows: co-IP; endogenous proteins in lysates of cochlea from WT or Y6236fsX1 mutant mice; precipitated with WHRN antibody, IgG as control, WDSUB1 blotted; ≈2.5-fold more WDSUB1 with WHRN in Y6236fsX1 than in WT lysate.

Test [6] has as its target T6, Flag-WHRN S156E (phospho-mimic mutant) (mouse) (UniProt Q80VW5).
T6 sequence: T1 sequence with S156E
The test is described as follows: co-IP; cotransfected HEK293 cells, starved 12 h, lysed in 50 mM Tris-HCl pH 7.4, 150 mM NaCl, 1% Triton, 1% NP-40, 2 mM EDTA; anti-Flag M2 or anti-Myc antibody-conjugated agarose, 4 °C overnight; blots against the tags.

For test [7], the target named is T7, Flag-WHRN S246E (phospho-mimic mutant) (mouse) (UniProt Q80VW5).
T7 sequence: T1 sequence with S246E
The description is as above.

The target of test [8] is T8, Flag-WHRN (wild type) (mouse) (UniProt Q80VW5).
T8 sequence: T1 sequence
The description is as above.

For test [9], the target named is T1, WHRN, wild type, of the PDZ-truncation co-IP (Figure 6b,c) (mouse). The description is as above. The source holds these as a separate data set.
Test [10] concerns the target T9, WHRN-PDZ1 domain, purified (mouse) (UniProt Q80VW5).
T9 sequence: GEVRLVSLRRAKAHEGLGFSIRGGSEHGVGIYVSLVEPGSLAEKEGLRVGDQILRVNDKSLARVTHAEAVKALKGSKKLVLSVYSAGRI
The test can be described thus: NMR titration; 15N-labelled PDZ1 or PDZ2 titrated with peptide (PDZ1/USH2Ap up to 1:4, PDZ2/ADGRV1p up to 1:5); 1H-15N HSQC, 293 K; 25 mM NaH2PO4, 100 mM NaCl, 2 mM EDTA, pH 6.8; both purified.

Positions count from the first letter of the chain named. Where two headings read alike, the source gives them in different places. No constants are given. Whether binding was seen depends on the method and setting. For some of these results: In cells and extracts the contact can be indirect. Some binding calls cover weakened binding; strength is not graded here. For some of these results: Where a sequence is shown, tags or fusion partners need not be part of it.

Consider “ADGRV1 of the PDZ-truncation co-IP (Figure 6b,c) (from UniProt Q8VHN7 4333-6298) (receptor)”, for which, in test [1], the binding entry is “binds”.

Take “ADGRV1-ICL2-FlAsH (from UniProt Q8VHN7 4333-6298) (receptor)”: the binding result in test [2], in [3] and in test [4] was “binds” throughout.

B1: WDSUB1, endogenous in mouse cochlea (enzyme, UniProt Q9D0I6 1-474)
chain: MVRLIHTLADHGDDVSCCAFSAALLATCSLDKTIRLYSLSDFAELPYSPLKFHTYAVHCCCFSPSGHVLASCSTDGTTVLWSSHSGHTLTVLEQPGGSPVRVCCFSPDSAYLASGAADGSIALWNAQTYKLYRCGSVKDSSLVACAFSPDGGLFVTGSSGGDLTVWDDRMRCLHSEKAHDLGITCCSFSSQPLSGGEGLQSYQLASCGQDCEIKLWAVTITRVLGFELKYKSTLSGHCAPVLACAFSHDGKMLASGSVDKSVIIHGIGPQSVLHTLTQHTRYVTTCAFAPNTLLLATGSMDKTVNIWQFDLETPCQGSMNDPLKHFTEEWSEEDVSVWLRAQGLEDLVGIFRANNIDGKELLHLTKESLAGDLKIESLGLRSKVLRSIEELRAKMDSLSSGIPDEFICPITRELMKDPVIASDGYSYEREAMESWIHKKKRTSPMTNLALPSLVLTPNRTLKMAINRWLETHEK
For the molecule B1, in [5], the binding result was “binds”.

B2: GFP-WDSUB1 (WD repeat, SAM, and U-box domain-containing protein 1) (enzyme, UniProt Q9D0I6 1-474)
chain: B1 chain
In the case of B2, the binding result in [6], in test [7] and in test [8] was “binds” each time.

B3: USH2A of the PDZ-truncation co-IP (Figure 6b,c) (domain or fragment, UniProt Q2QI47 4819-5193)
chain: PPSGLSPPQVQTLGSRMASVHWTPPLLPNGVIHSYELQLQRACPPDSAPRCPPSHTERKYWGPGHRASLAGLQPNTAYGVQVVAYNEAGSTASGWTNFSTKKEMPQYQALFSVDSNASMVWVDWSGTFLLNGHLKEYVVTDGGRRVYSGLDTTLYIPRMVDKIFFFQVTCTTDIGSVKTPLVQYDAATGSGLVLTTPGEKKGAGTKSTEFYSELWFIMVMAVVGLILLAIFLSLILQRKIHKEPCIRERPPLVPLQKRMTPLSVYPPGETHVGLADTRLPRSGTPMSIRSSQSVSVLRIPSQSQLSHAYSQSSLHRSVSQLMDMADKKVVTEDSLWETIMGHSSGLYVDEEELMNAIKGFSSVTKEHTAFTDTHL
For B3, the binding result in [9] is on record as “binds”.

B4: Myc-USH2A (usherin, aa 4819-5193) (domain or fragment, UniProt Q2QI47 4819-5193)
chain: B3 chain
B4: the binding entry in [6], in [7] and in test [8] was “binds” throughout.

B5: USH2Ap, 10-residue C-terminal tail peptide of USH2A harboring the PDZ-binding motif (peptide, UniProt Q2QI47 5184-5193, looked up)
peptide: EHTAFTDTHL
notes: also called USH2A C-terminal peptide; source: synthetic peptide
Regarding B5, in test [10], the binding entry is on record as “binds”.

(Values after publication PMC10238197, “Deafness‐Associated ADGRV1 Mutation Impairs USH2A Stability through Improper Phosphorylation of WHRN and WDSUB1 Recruitment” (Advanced Science, 2023).)
